In PubChem BioAssay AID504861 (Broad Institute, 2011):
About 290 (24%) of roughly 1,200 compounds were called active. Another 3% or so got no clear call; they are omitted.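 The calls were made as follows: active = compounds lowering cell viability signal with fitted half-maximal concentration at most ten times their highest tested concentration; inconclusive = flat fit with 30 to 70% signal loss, or poor fit; inactive = the rest.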 Only a part is listed here, and it is no random draw. Results with a measured potency or affinity are listed apart.

Assay: HEK293T cell viability reduction, dose response, cytotoxicity control for LMP1 NF-kB inhibitor project, CellTiter-Glo luminescence, cherry-picks (AID 504861)
Settings: CellTiter-Glo ATP luminescence, 48 h; at 26 µM (top of the series)

Compound	activity change, negative = cytotoxicity
S=C1SCN(Cc2ccccc2)CN1Cc1ccco1	inactive: 4.65%
C/C(=N\Nc1ccc(C(F)(F)F)cc1[N+](=O)[O-])C(C)C	inactive: 0.008%
Nc1nc(N)nc(-c2cc(Cl)ccc2Cl)n1	inactive: 1.65%
COc1ccc(S(=O)(=O)N2CCOCC2)cc1NC(=O)COC(=O)CCS(=O)(=O)c1ccc(C)cc1	inactive: 4.64%
C=CCn1c(C)c(C(C)=O)c(N2CCN(C(c3ccccc3)c3ccccc3)CC2)nc1=S	inactive: -5.9%
O=C(Nc1cc(S(=O)(=O)N2CCOCC2)ccc1Cl)c1ccncc1	inactive: -2.4%
COc1cccc(C2Nc3ccc4ccccc4c3C3=C2C(=O)CC(C)(C)C3)c1OCC(=O)O (configuration not stated)	inactive: 5.8%
CCON1C(=O)C2(CCCCC2)C(=O)C12C=CCCC2 (configuration not stated)	inactive: 7.76%
CCOC(=O)C1CCN(S(=O)(=O)Cc2ccccc2)C1=O (configuration not stated)	inactive: 4.6%
COc1cc(/C=C2\SC(=S)N(NC(=O)c3ccncc3)C2=O)ccc1O	inactive: 2.41%
CCN(C(=O)c1cc(OC)c(OC)c(OC)c1)C1CCCCC1	inactive: 11.5%
CN(C)CCC(c1ccccc1)c1ccccn1 (configuration not stated)	inactive: 6.5%
CC(C)NCC(O)COc1cccc2ccccc12 (configuration not stated)	inactive: 10.2%
O=C1CCc2cc(OCCCCc3nnnn3C3CCCCC3)ccc2N1	inactive: 9.31%
COC(=O)C1=C(C(=O)c2ccccc2)C(c2ccccc2)n2nnnc2N1 (configuration not stated)	inactive: 5.26%
CCN(CC(=O)NCc1ccc(F)cc1)CC(=O)Nc1cc(S(=O)(=O)N(C)C)ccc1C	inactive: 4.11%
CCOC(=O)c1c(-n2cccc2)sc2c1CCCC2=O	inactive: 7.85%
COC(=O)c1sc(NC(=O)c2ccc(OC)cc2OC)nc1C	inactive: 1.22%
Cc1cccc(S(=O)(=O)N2CCCc3ccccc32)c1	inactive: 0.425%
COC(=O)c1c(O)ccc(Oc2ccccc2)c1C(=O)OC	inactive: 5.13%
COC(=O)CSc1ncnc2c1sc1nc3c(cc12)COC(C)(C)C3	inactive: 6.22%
CC1CCN(CCOc2ccc(C(=O)c3ccccc3)cc2)CC1	inactive: -5.16%
COC(=O)CCNc1ccc2c(c1)OCCO2	inactive: -7.17%
O=C(COC(=O)c1cc2ccccc2cc1O)NCc1ccccc1	inactive: 4.34%
COC(=O)c1[nH]c2cccc(C)c2c1NC(=O)CN1CCCc2ccccc21	inactive: -5.56%
Cc1ccccc1-n1nc(C)c2cc(C(=O)NC3CC3)sc21	inactive: 0.234%
COc1ccc(/C(CC2OC(=O)c3ccccc32)=N\NC(N)=O)cc1 (configuration not stated)	inactive: 1.16%

Given as comma-separated lines: entries from further up.
Compound,"activity change, negative = cytotoxicity"
CN(C)CCC(c1ccccc1)c1ccccn1 (configuration not stated),inactive: 6.5%
O=C(COC(=O)c1cc2ccccc2cc1O)NCc1ccccc1,inactive: 4.34%
